According to patent US20050222012A1:
Results are given in words; binding and its absence hold for the method and conditions named. Binding seen in cells or lysates may run through a third protein. Some results given as binding are weak or reduced against the parent protein; the word gives no strength. Tags and fused reporters may be left off the sequences shown.

T1: Biotinylated AF9, C-terminal 368 aa of human AF9 made by coupled in vitro transcription and translation (human) (UniProt P42568)
T1 sequence (chain, Biotinylated (positions not stated)): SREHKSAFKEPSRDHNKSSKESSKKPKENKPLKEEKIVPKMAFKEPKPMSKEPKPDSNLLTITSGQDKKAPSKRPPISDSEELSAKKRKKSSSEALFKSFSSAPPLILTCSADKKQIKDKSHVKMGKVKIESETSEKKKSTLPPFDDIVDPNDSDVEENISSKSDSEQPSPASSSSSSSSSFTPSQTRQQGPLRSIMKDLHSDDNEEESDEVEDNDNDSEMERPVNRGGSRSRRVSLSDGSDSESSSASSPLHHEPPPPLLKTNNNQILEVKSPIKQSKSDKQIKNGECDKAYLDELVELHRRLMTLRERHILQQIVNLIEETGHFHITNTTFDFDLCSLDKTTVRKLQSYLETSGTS


Assays:
[1] = biological target: T1, Biotinylated AF9, C-terminal 368 aa of human AF9 made by coupled in vitro transcription and translation (human); assay: GST pull-down, biotinylated AF9 on immobilized GST-MPc3(202-362)
[2] = biological target: T1, Biotinylated AF9, C-terminal 368 aa of human AF9 made by coupled in vitro transcription and translation (human); assay: GST pull-down, biotinylated AF9 on immobilized GST-mBCoR(925-1759)

binding [1] | binding [2] | Binder
binds | – | glutathione-S-transferase (GST) fused to amino acids 202-362 of MPc3 (protein, not shown: a dimerising Fc or GST) RKLDETSSGTGKFPAGHSVIQLARRQDSDLVQYGVTSPSSAEASSKLAVDTFPARVIKHRAAFLEAKGQGALDPGGARVRHSSGTPASVGSLYRDMGAQGGRPSLIARIPVARILGDPEEESWSPSLTNLEKVVVTDVTSNFLTVTIKESNTDQGFFKEKR
– | binds | glutathione-S-transferase (GST) fused to amino acids 925-1759 of mBCoR (protein, not shown: a dimerising Fc or GST) DPKPFCVGGAPPNMDVTPAYTKEGTDEAESNDGKVLKPKPSKLAKRIANSAGYVGDRFKCVTTELYADSSQLSREQRALQMEGLQEDSILCLPAAYCERAMMRFSELEMKEREGSHPATKDSEVCKFSPADWERLKGNQEKKPKSVTLEEAIADQNDSERCEYSTGNKHDLFEAPEDKDLPVEKYFLERPPVSEPPSDQGVVDTPHSPTLRLDRKRKLSGDSTHTETAVEELAEDPLKAKRRRISKDDWPEREMTNSSSNHLEDPHCNELTNLKVCIELTGLHPKKQRHLLHLRERWEQQVSAAESKPGRQSRKEVAQAVQPEVTSQGTNITEEKPGRKKAEAKGNRGWSEESLKSCDNEQGLPVLSGSPPMKSLSSTNASGKKQTQPSCTPASRLPAKQQKIKESQKTDVLCTGEDEDCQAASPLQKYTDNIEKPSGKRLCKTKHLIPQESRRSLQITGDYYVENTDTKMTVRRFRKRPEPSSDYDLSPPAKQEPKPFGRLQQLLPATQATQLPRSNSPQETTQSRPMPPEARRLIVNKNAGETLLQRAARLGYEEVVLYCLENKVCDVNHRDNAGYCALHEACARGWLNIVRHLLEYGADVNCSAQDGTRPLHDAVENDHLEIVRLLLSYGADPTLATYSGRTIMKMTHSELMEKFLTDYLNDLQGRSEDDTSGAWEFYGSSVCEPDDESGYDVLANPPGPEDPDEEEDTYSDLFEFEFAESSLLPCYNIQVSVAQGPRNWLLLSDVLKKLKMSSRIFRSNFPNLEIVTIAEAEFYRQVSTSLLFSCPKDLEAFNPESKELLDLVEFTNELQTLLGSSVEWLHPSDTGHENYW
